Data as given in PubChem BioAssay AID1259308 (NCATS, 2017)
This is a random part of about 59,000 deposited reagents. About 1,510 of all reagents (2.6%) count as active. 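Calls use total luciferase alone and ignore viability, so some active siRNAs may act by altering cell number.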 A number with no mark means an inactive call. Reagents against one gene are numbered here.

Aim: 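Candidate targets for better recombinant protein yield in mammalian cells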 (primary screen)
Cells: human HEK293 embryonic kidney cells stably expressing firefly luciferase (HEK-CMV-Luc2-Hygro)
Reagent: single siRNA against human genes, 0.8 pmol siRNA per well
Time to read-out: 72 h
Detection: 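Luciferase light (ONE-Glo) measured on one replicate plate set and viability (CellTiter-Glo) on the other, scaled to a negative control siRNA, with robust z-scores and luciferase per cell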
Scale: total luciferase, z-score and total luciferase, % of control: higher = more reporter protein produced; luciferase per cell, z-score: higher = more reporter output per viable cell; viable cells, % of control: higher = more viable cells
Rule for the call: 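Active when the median/MAD z-score for overall luciferase is greater than 3; a gene was taken forward for validation with new siRNAs if at least two of its three siRNAs passed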
Calls: active = raised luciferase; inactive = no rise

Target gene	siRNA no.	total luciferase, z-score	total luciferase, % of control	luciferase per cell, z-score	viable cells, % of control
KRT39 (keratin 39)	1	-0.691	68.1	-0.781	93.5
KRT39 (keratin 39)	2	0.526	92.3	0.1	100
KRT39 (keratin 39)	3	-0.498	72	-0.611	94.5
CNNM4	1	-0.349	74.9	-0.975	108
CNNM4	2	-0.517	71.6	-1.05	106
CNNM4	3	0.934	100	0.714	93
ZNF587 (zinc finger protein 587)	1	0.26	87.1	0.112	94.5
ZNF587 (zinc finger protein 587)	2	0.0252	82.4	-0.155	95.9
ZNF587 (zinc finger protein 587)	3	-0.14	79.1	-0.397	98.1
ATG4D (autophagy related 4D cysteine peptidase)	1	-1.89	44.4	-2.6	98.3
ATG4D (autophagy related 4D cysteine peptidase)	2	0.0466	82.8	0.141	89.2
ATG4D (autophagy related 4D cysteine peptidase)	3	0.492	91.7	0.188	97.5
FRMD3 (FERM domain containing 3)	1	-0.188	78.2	-0.966	113
FRMD3 (FERM domain containing 3)	2	-0.567	70.6	-0.404	87.8
FRMD3 (FERM domain containing 3)	3	-2.27	36.8	-0.446	46.2
PHACTR1 (phosphatase and actin regulator 1)	1	-1.25	57.1	-2.02	109
PHACTR1 (phosphatase and actin regulator 1)	2	-0.167	78.6	-0.227	93.2
PHACTR1 (phosphatase and actin regulator 1)	3	1.23	106	1.73	75.3
APOH (apolipoprotein H)	1	1.5	112	1.25	89.9
APOH (apolipoprotein H)	2	1.09	104	0.86	92.3
APOH (apolipoprotein H)	3	-0.0156	81.6	-0.292	98.5
SELENOF (selenoprotein F)	1	-0.523	71.5	0.559	68.9
SELENOF (selenoprotein F)	2	-0.0153	81.6	-0.328	99.4
SELENOF (selenoprotein F)	3	1.93	120	1.35	94.2
OCA2 (OCA2 melanosomal transmembrane protein)	1	1.73	116	1.53	86.7
OCA2 (OCA2 melanosomal transmembrane protein)	2	0.131	84.5	-0.253	101
OCA2 (OCA2 melanosomal transmembrane protein)	3	-0.285	76.2	-0.465	96.3
SLC61A1	1	1.08	103	0.19	110
SLC61A1	2	-0.14	79.1	-0.548	102
SLC61A1	3	-1.63	49.5	-1.97	92.9
HAL (histidine ammonia-lyase)	1	-0.257	76.8	0.88	68
HAL (histidine ammonia-lyase)	2	-0.228	77.3	0.229	81.4
HAL (histidine ammonia-lyase)	3	2.47	131	2.21	81.8
IGHV4OR15-8 (immunoglobulin heavy variable 4/OR15-8 (non-functional))	1	0.236	86.6	0.329	88.7
IGHV4OR15-8 (immunoglobulin heavy variable 4/OR15-8 (non-functional))	2	-1.75	47.1	-1.36	75.2
IGHV4OR15-8 (immunoglobulin heavy variable 4/OR15-8 (non-functional))	3	-0.163	78.6	-0.607	103
FBXL6 (F-box and leucine rich repeat protein 6)	1	0.986	101	0.723	93.8
FBXL6 (F-box and leucine rich repeat protein 6)	2	1.87	119	1.78	83.4
FBXL6 (F-box and leucine rich repeat protein 6)	3	1.09	104	0.184	110
SSX5 (SSX family member 5)	1	0.983	101	0.856	90.5
SSX5 (SSX family member 5)	2	-0.493	72.1	-0.822	100
SSX5 (SSX family member 5)	3	0.125	84.4	0.299	87.1
PRTFDC1 (phosphoribosyl transferase domain containing 1)	1	2.26	127	2.37	75.9
PRTFDC1 (phosphoribosyl transferase domain containing 1)	2	-0.451	72.9	-0.488	92.7
PRTFDC1 (phosphoribosyl transferase domain containing 1)	3	0.423	90.3	-0.126	104
PDE6D (phosphodiesterase 6D)	1	2.58	133	3.06	66.5
PDE6D (phosphodiesterase 6D)	2	0.287	87.6	-0.132	101
PDE6D (phosphodiesterase 6D)	3	0.981	101	2.17	64
TRIM47 (tripartite motif containing 47)	1	2.21	126	2.24	78
TRIM47 (tripartite motif containing 47)	2	-0.866	64.7	-0.938	92.5
TRIM47 (tripartite motif containing 47)	3	1.18	105	1.13	87.4
PLGLB2 (plasminogen like B2)	1	0.449	90.8	0.855	81
PLGLB2 (plasminogen like B2)	2	-0.704	67.9	-1.2	104
PLGLB2 (plasminogen like B2)	3	1.28	107	0.638	101
SBDS (SBDS ribosome maturation factor)	1	-0.146	79	-0.117	91
SBDS (SBDS ribosome maturation factor)	2	-0.432	73.3	-0.0914	83.9
SBDS (SBDS ribosome maturation factor)	3	-2.54	31.3	-2.95	76
ATF7IP (activating transcription factor 7 interacting protein)	1	2.59	133	1.6	97.9
ATF7IP (activating transcription factor 7 interacting protein)	2	2.33	128	1.7	91.6
ATF7IP (activating transcription factor 7 interacting protein)	3	0.772	97.2	0.44	96.8
PNPLA4	1	1.33	108	1.93	72.9
PNPLA4	2	-0.126	79.4	-0.00474	88.8
PNPLA4	3	0.0737	83.4	1	71.5
TMEM154 (transmembrane protein 154)	1	1.92	120	1.17	98.5
TMEM154 (transmembrane protein 154)	2	-0.715	67.7	-0.648	89.7
TMEM154 (transmembrane protein 154)	3	-0.783	66.3	-0.103	76.1
ZNF787 (zinc finger protein 787)	1	1.45	111	1.43	84.9
ZNF787 (zinc finger protein 787)	2	-1.14	59.2	-1.13	89.2
ZNF787 (zinc finger protein 787)	3	0.134	84.5	-0.531	109
WDR5 (WD repeat domain 5)	1	-0.46	72.7	0.0579	80
WDR5 (WD repeat domain 5)	2	1.2	106	1.83	73
WDR5 (WD repeat domain 5)	3	-0.417	73.6	-0.327	89.6
MRPL28 (mitochondrial ribosomal protein L28)	1	0.492	91.7	0.969	79.4
MRPL28 (mitochondrial ribosomal protein L28)	2	0.36	89	1.51	66.9
MRPL28 (mitochondrial ribosomal protein L28)	3	-0.618	69.6	-0.454	87.6

Single entries from the entries so far.
APOH (apolipoprotein H) #3, total luciferase, z-score → -0.0156
Result for OCA2 (OCA2 melanosomal transmembrane protein) #1 under “viable cells, % of control”: 86.7
Under “total luciferase, % of control”, ZNF587 (zinc finger protein 587) #2 shows 82.4
Value for PNPLA4 #2 in “viable cells, % of control”: 88.8
Value for ATF7IP (activating transcription factor 7 interacting protein) #2 under “total luciferase, z-score”: 2.33
For “total luciferase, % of control”, SBDS (SBDS ribosome maturation factor) #3 reads 31.3
